# Library screening results

Protein sequences, listed by entry. Tags and fused reporters are not part of them.
UniProt E9BF75, entry or part of it: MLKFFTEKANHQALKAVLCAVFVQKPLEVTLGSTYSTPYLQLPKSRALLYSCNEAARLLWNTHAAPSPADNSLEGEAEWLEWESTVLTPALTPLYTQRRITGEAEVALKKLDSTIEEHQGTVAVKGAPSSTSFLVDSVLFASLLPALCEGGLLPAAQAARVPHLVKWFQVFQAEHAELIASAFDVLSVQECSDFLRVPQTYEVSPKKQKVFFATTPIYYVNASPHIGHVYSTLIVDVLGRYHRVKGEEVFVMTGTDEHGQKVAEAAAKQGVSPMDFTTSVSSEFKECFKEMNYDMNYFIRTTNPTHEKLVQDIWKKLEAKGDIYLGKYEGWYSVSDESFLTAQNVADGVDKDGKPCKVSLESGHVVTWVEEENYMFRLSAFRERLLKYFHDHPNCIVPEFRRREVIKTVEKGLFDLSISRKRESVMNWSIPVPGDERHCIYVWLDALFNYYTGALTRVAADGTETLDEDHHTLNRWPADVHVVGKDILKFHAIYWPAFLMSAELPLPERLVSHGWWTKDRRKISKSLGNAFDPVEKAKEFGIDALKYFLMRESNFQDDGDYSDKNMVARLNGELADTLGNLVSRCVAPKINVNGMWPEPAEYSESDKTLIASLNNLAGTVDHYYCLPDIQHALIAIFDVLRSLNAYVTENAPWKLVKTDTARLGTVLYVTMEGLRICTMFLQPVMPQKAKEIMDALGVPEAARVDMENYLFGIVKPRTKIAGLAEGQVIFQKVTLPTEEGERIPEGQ

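Methionyl-tRNA synthetase (putative), Leishmania donovani (UniProt E9BF75). Primary screen of methionyl-tRNA synthetase; the read-out is not stated. The test concentration is not given. Values are per cent inhibition. Size under these conditions: about 68,000 compounds, about 24 of them at 50% or above in at least one test.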

Results are percentages, as filed.
The record does not define 0% and 100%; most values in the screen are far below 50% and negative numbers occur (in some assays of this library far below -100).
The compounds are a random part of those screened.

{"compound": "COc1ccc(C2=CCN(C(=O)CN(C)CC(N)=O)CC2)cc1", "Inhibition": 4.225}
{"compound": "Cn1cc(C(=O)N2CCCC(c3cnccn3)C2)cn1", "stereo": "configuration not stated", "Inhibition": 5.65}
{"compound": "COc1ccc(-c2ccc(C(=O)O)c(F)c2)c(F)c1", "Inhibition": -6.873}
{"compound": "CC(C)CCNC(=O)C1CCCN1C(=O)Nc1cccc(F)c1", "stereo": "configuration not stated", "Inhibition": 12.66}
{"compound": "CC(C)c1nnc2n1CCN(C(=O)c1cccc(C(F)(F)F)c1)C2", "Inhibition": 18.88}
{"compound": "O=C(NCc1ccc2c(c1)CCCO2)c1ccccc1C1CCNC1", "stereo": "configuration not stated", "Inhibition": 11.54}
{"compound": "O=C(CN1CCNC1=O)N1CCc2nnc(-c3ccccc3)n2CC1", "Inhibition": 16.19}
{"compound": "COc1cccc(C2=CCN(CCN3CCOC3=O)CC2)c1", "Inhibition": -4.261}
{"compound": "O=C(NC1CC1)N1CCOCC2(CCN(Cc3cccs3)C2)C1", "stereo": "configuration not stated", "Inhibition": 11.23}
{"compound": "CCc1c(C)n(CCC#N)c2nc3ccccc3n2c1=O", "Inhibition": 16.62}
{"compound": "Clc1ccc(C2NCCc3cc4c(cc32)OCCO4)cc1", "stereo": "configuration not stated", "Inhibition": -0.8108}
{"compound": "CCOCC1CN(C(=O)CC2=CCCCC2)Cc2nnn(C)c21", "stereo": "configuration not stated", "Inhibition": 7.843}
{"compound": "COc1c(C2CCCN2CC(=O)N(C)c2nccs2)c(C)nn1C", "stereo": "configuration not stated", "Inhibition": 6.504}
{"compound": "C[C@@H]1CN(Cc2cc3ccccc3n2C)CC[C@@]1(O)C1CC1", "Inhibition": 9.214}
{"compound": "C[C@@H]1CN(C2(C(=O)N3CC[C@H](O)C3)Cc3ccccc3C2)C[C@H](C)O1", "Inhibition": 4.839}
{"compound": "Cc1ccc(-n2ncc(C(=O)NC3CCCCC3)c2N)cc1", "Inhibition": 8.462}
{"compound": "O=C(Cn1nc(-c2ccc(F)cc2)oc1=O)NCCc1ccccc1", "Inhibition": 12.02}
{"compound": "N#Cc1cccc(Cl)c1NC1CCN(CC(N)=O)CC1", "Inhibition": 11.98}
{"compound": "Cc1nc(CC(=O)N2CCC3(CC2)CC(=O)N(CC2CCCO2)C3)cs1", "stereo": "configuration not stated", "Inhibition": 8.571}
{"compound": "CN1CCN(CCCNC(=O)C2CCCCC2)CC1", "Inhibition": 16.03}
{"compound": "Cc1ccc(C(=O)N(C)Cc2cc(Br)cs2)c(=O)[nH]1", "Inhibition": 11.97}
{"compound": "CC1(C)CN(CC(F)(F)F)CCN1CC(N)=O", "Inhibition": 16.49}
{"compound": "Cn1cc(CN2C[C@@H]3COC[C@]3(COCC3CC3)C2)cn1", "Inhibition": 7.792}
{"compound": "CCC(NC(=O)CS(=O)(=O)C1CCCC1)c1cc(F)ccc1F", "stereo": "configuration not stated", "Inhibition": 8.361}
{"compound": "CCc1cnc(C)nc1NCCSc1nnc(C)n1CC", "Inhibition": 8.04}
{"compound": "CCC(=O)N1CCC2(C=C(C(=O)N3CCCC3)c3ccccc32)CC1", "Inhibition": 6.753}
{"compound": "CCS(=O)(=O)N1CCc2ccc(NC(=O)NC3CCCCC3)cc21", "Inhibition": 1.127}
{"compound": "Cc1nc(C2CCCN2C(=O)Cc2ccc3c(c2)OCO3)nc(O)c1C", "stereo": "configuration not stated", "Inhibition": 22.51}
{"compound": "Cc1ccccc1C(C#N)NC(=O)c1cccc2c1OCCO2", "stereo": "configuration not stated", "Inhibition": 3.663}
{"compound": "c1cc(CCN2CCN(c3ccc4nncn4n3)CC2)ccn1", "Inhibition": 18.75}
{"compound": "COc1ccnc(NC(=O)c2cnccn2)c1", "Inhibition": 20.63}
{"compound": "Cc1cc(C(=O)NC(C)c2nnn[nH]2)c2ccc(C)c(C)c2n1", "stereo": "configuration not stated", "Inhibition": 0}
{"compound": "Cc1cnccc1CN(C)C(=O)C(C)(C)NC(=O)c1cccs1", "Inhibition": 14.08}
{"compound": "COC1CCCN(Cc2cc(O)c3cc(C)cc(C)c3n2)C1", "stereo": "configuration not stated", "Inhibition": 16.48}
{"compound": "COc1ccccc1C(C)N(C)Cc1nc2c(cnn2C)c(=O)[nH]1", "stereo": "configuration not stated", "Inhibition": 18.1}
{"compound": "CCOCCN1CCN(CCCc2nnnn2-c2ccccc2)CC1", "Inhibition": 10.14}
{"compound": "CCC(C)(C)NC(=O)c1ccc(NC(=O)NCc2cc(C)no2)cc1", "Inhibition": 17.03}
{"compound": "Cc1c(C)n(CC(O)CN2CCN(CCO)CC2)c2c(Cl)cccc12", "stereo": "configuration not stated", "Inhibition": 13.66}
{"compound": "CN(C)S(=O)(=O)c1ccc(CN2CCCC2c2ccccc2)o1", "stereo": "configuration not stated", "Inhibition": 6.299}
{"compound": "C[C@H](O)CNc1cc(-c2ccncc2)ncn1", "Inhibition": 9.951}
{"compound": "N#CCCN1CCN(S(=O)(=O)c2ccc(Cl)s2)CC1", "Inhibition": 15.76}
{"compound": "Cc1ccc(NCc2cccc3cn[nH]c23)cc1OC1CCOC1", "stereo": "configuration not stated", "Inhibition": 12.32}
{"compound": "Cc1cccc(CN2CC3C[C@]3(NC(=O)c3ccco3)C2)n1", "stereo": "some centres not stated", "Inhibition": 8.696}
{"compound": "CC(C)n1nc(CN2CCOCC2)c2c1CN(Cc1ccsc1)C2", "Inhibition": 7.343}
{"compound": "COC(=O)c1sc(C(F)(F)F)cc1OC", "Inhibition": 18.32}
{"compound": "Cc1ccc(N2CC[C@H]3C[C@@H](C(=O)N4CCOCC4)O[C@H]3C2)nn1", "Inhibition": 19.19}
{"compound": "CC(=O)Nc1nc(CN2CCn3c(nnc3C(C)C)C2)cs1", "Inhibition": 14.8}
{"compound": "Cc1c(I)cccc1C(=O)NCc1ncc[nH]1", "Inhibition": 3.136}
{"compound": "CCN1CCCC1CNC(=O)c1cc(COc2cccc(F)c2)[nH]n1", "stereo": "configuration not stated", "Inhibition": 21.14}
{"compound": "Nc1cccnc1N1CCCCCC1", "Inhibition": 18.33}
{"compound": "O=C(c1cccs1)N1CCC2(CC1)CN(c1cncnc1)C(=O)CO2", "Inhibition": 15.42}
{"compound": "CCC(c1ccncc1)N(C)S(C)(=O)=O", "stereo": "configuration not stated", "Inhibition": 14.01}
{"compound": "c1ccc(CN2CCC3(CC2)CCN(c2ccccn2)C3)nc1", "Inhibition": 6.234}

The last 3 entries again:

* O=C(c1cccs1)N1CCC2(CC1)CN(c1cncnc1)C(=O)CO2 | 15.42%
* CCC(c1ccncc1)N(C)S(C)(=O)=O (configuration not stated) | 14.01%
* c1ccc(CN2CCC3(CC2)CCN(c2ccccn2)C3)nc1 | 6.234%

The values are deposited in ChEMBL (CHEMBL3988442, “University of Dundee, Small-Polar-MMV Screening Library” (2021)).